Results deposited as PubChem BioAssay AID1259254 (NCATS, 2017).
Purpose: 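Gene knock-downs that lead to re-replication, shown by excess G2 DNA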 (primary screen). Cells: human HCT116 colorectal cancer cells. Knock-down reagent: single siRNA against human genes. Timing: 3 days. Read-out: 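Nuclei stained with Hoechst and imaged; cell-cycle phase assigned by DNA content; G2 share scaled per plate, non-targeting siRNA 0%, GMNN siRNA 100%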. Reading the numbers: G2 robust z-score and G2 cells, % of GMNN control: higher = more G2 cells, more excess DNA replication; raw share of cells in G2: higher = larger share of cells with G2 DNA content. Hit rule: 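An siRNA counts as active if its G2 robust z-score lies at least 5 MADs above the screen median; here such calls match roughly 38% of GMNN control or more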.
The whole screen tested about 59,000 reagents; this is a part drawn at random. In the full data, about 1,550 (2.6%) are marked active. 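G2 share is only a proxy for re-replication; each gene was hit by three separate siRNAs, and active genes were retested.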 Raw values vary from plate to plate and are shown uncorrected. A number with no mark means an inactive call. Reagents against one gene are numbered here. Not given: the amount of reagent.

| gene | reagent no. | G2 robust z-score | G2 cells, % of GMNN control | raw share of cells in G2 (%) |
| --- | --- | --- | --- | --- |
| CFTR | 1 | 0.0534 | 3.34 | 6.51 |
| CFTR | 2 | -0.605 | -1.29 | 4.35 |
| CFTR | 3 | 3.26 | 25.9 | 14.5 |
| EDNRB | 1 | -0.145 | 1.95 | 6.54 |
| EDNRB | 2 | 1.16 | 11.2 | 8.42 |
| EDNRB | 3 | -1.12 | -4.93 | 1.76 |
| AADAC | 1 | -0.382 | 0.277 | 4.09 |
| AADAC | 2 | 0.738 | 8.16 | 7.5 |
| AADAC | 3 | 0.922 | 9.45 | 8.44 |
| HCFC1R1 | 1 | -0.341 | 0.571 | 3.81 |
| HCFC1R1 | 2 | 2.7 | 22 | 13.5 |
| HCFC1R1 | 3 | -0.785 | -2.56 | 2.35 |
| SLC2A7 | 1 | -0.388 | 0.235 | 4.8 |
| SLC2A7 | 2 | -0.865 | -3.12 | 4.47 |
| SLC2A7 | 3 | 4.86 | 37.2 | 18.3 |
| SCAND3 | 1 | 0.472 | 6.29 | 6.61 |
| SCAND3 | 2 | -0.967 | -3.84 | 2.19 |
| SCAND3 | 3 | -0.307 | 0.806 | 2.05 |
| TMEM120A | 1 | -0.665 | -1.71 | 1.89 |
| TMEM120A | 2 | -0.635 | -1.5 | 3.61 |
| TMEM120A | 3 | -1.26 | -5.9 | 1.71 |
| DDX12P | 1 | 1.2 | 11.4 | 7.97 |
| DDX12P | 2 | 0.635 | 7.43 | 6.47 |
| DDX12P | 3 | 3.33 | 26.4 | 15.8 |
| XKR6 | 1 | -0.78 | -2.52 | 2.72 |
| XKR6 | 2 | -0.258 | 1.15 | 3.49 |
| XKR6 | 3 | -0.169 | 1.78 | 3.81 |
| IFNLR1 | 1 | 0.419 | 5.92 | 7.19 |
| IFNLR1 | 2 | 2.45 | 20.2 | 12.1 |
| IFNLR1 | 3 | -0.916 | -3.48 | 4.3 |
| MEFV | 1 | -0.603 | -1.27 | 4.87 |
| MEFV | 2 | -0.371 | 0.355 | 3.31 |
| MEFV | 3 | 1.35 | 12.4 | 10.4 |
| JAZF1 | 1 | -0.727 | -2.15 | 2.6 |
| JAZF1 | 2 | -0.35 | 0.503 | 3.2 |
| JAZF1 | 3 | -0.19 | 1.63 | 4.89 |
| GPR135 | 1 | -1.15 | -5.11 | 4.01 |
| GPR135 | 2 | -0.179 | 1.7 | 5.11 |
| GPR135 | 3 | 6.33 (active) | 47.5 | 17.8 |
| RGP1 | 1 | 0.31 | 5.15 | 7.66 |
| RGP1 | 2 | 2.91 | 23.4 | 13.7 |
| RGP1 | 3 | 3.52 | 27.7 | 13.5 |
| VWF | 1 | 3.52 | 27.7 | 14.5 |
| VWF | 2 | -0.825 | -2.84 | 3.52 |
| VWF | 3 | -0.123 | 2.11 | 3.87 |
| ATP8A1 | 1 | -0.839 | -2.94 | 5.32 |
| ATP8A1 | 2 | -0.347 | 0.529 | 4.01 |
| ATP8A1 | 3 | -1.26 | -5.9 | 3.13 |
| MINDY1 | 1 | 1.93 | 16.6 | 10.9 |
| MINDY1 | 2 | 1.9 | 16.3 | 10.9 |
| MINDY1 | 3 | -0.569 | -1.04 | 2.81 |
| CDHR3 | 1 | -0.181 | 1.7 | 4.19 |
| CDHR3 | 2 | -0.156 | 1.87 | 3.77 |
| CDHR3 | 3 | -0.208 | 1.5 | 3.67 |
| MRPL30 | 1 | -0.898 | -3.35 | 2.58 |
| MRPL30 | 2 | 0.994 | 9.96 | 8.32 |
| MRPL30 | 3 | 0.701 | 7.9 | 5.74 |
| CBFB | 1 | -0.107 | 2.22 | 4.34 |
| CBFB | 2 | 1.23 | 11.6 | 10.3 |
| CBFB | 3 | -0.344 | 0.549 | 3.31 |
| ENTPD4 | 1 | 0.384 | 5.67 | 6.64 |
| ENTPD4 | 2 | -0.53 | -0.765 | 4.07 |
| ENTPD4 | 3 | 0.301 | 5.08 | 5.03 |
| AREL1 | 1 | -0.244 | 1.25 | 5.9 |
| AREL1 | 2 | 0.97 | 9.8 | 8.03 |
| AREL1 | 3 | 0.255 | 4.76 | 5.14 |
| SUN5 | 1 | 4.63 | 35.6 | 17.6 |
| SUN5 | 2 | -0.713 | -2.05 | 2.45 |
| SUN5 | 3 | 0.517 | 6.6 | 4.97 |

Part of the list above, reformatted:
gene,reagent no.,G2 robust z-score,"G2 cells, % of GMNN control",raw share of cells in G2 (%)
RGP1,2,2.91,23.4,13.7
RGP1,3,3.52,27.7,13.5
VWF,1,3.52,27.7,14.5
VWF,2,-0.825,-2.84,3.52
VWF,3,-0.123,2.11,3.87
ATP8A1,1,-0.839,-2.94,5.32
ATP8A1,2,-0.347,0.529,4.01
ATP8A1,3,-1.26,-5.9,3.13
MINDY1,1,1.93,16.6,10.9
MINDY1,2,1.9,16.3,10.9
MINDY1,3,-0.569,-1.04,2.81
CDHR3,1,-0.181,1.7,4.19
